Measured values reported in US20210283092A1, “METHODS AND USES OF […] DERIVATIVES” (priority 2018, published 2021).
Some entries share one result that the patent states for a list of compounds.

Assay: Concentration in circulating leukocytes of mice after subcutaneous injection
Conditions: 5 μmol/kg subcutaneous, last time point analyzed
Protocol: Blood was harvested by cardiac puncture and centrifuged to obtain circulating leukocytes. The concentration of the compound in the leukocytes (FIGS. 11A and B) was determined by mass spectrometry. The concentration of (91) (CCl) or CH-35 (43) is expressed as the means of the amount of (91) (CCl) or CH-35 (43) measured in circulating leukocytes (ng/ml) of 5 mice harvested at the same time point.

CCOc1cc2c(c(OC)c1OC)-c1ccc(SC)c(=O)cc1[C@@H](NC(=O)OC)CC2 [(91)]
persistence in circulating leukocytes: at least 2 hours
